The text below walks through data of paper PMC9098222.

In one test the target is GFP-tagged FER (UniProt P16591). Put plainly: co-IP; HEK293FT cells co-transfected with GFP-tagged FER and YFP-tagged IRS4 truncations; immunoprecipitation with FER antibody, immunoblot with YFP antibody.
Test [1] addresses T1, Myc-tagged IRS4 (insulin receptor substrate 4), full-length (human) (UniProt O14654).
T1 sequence: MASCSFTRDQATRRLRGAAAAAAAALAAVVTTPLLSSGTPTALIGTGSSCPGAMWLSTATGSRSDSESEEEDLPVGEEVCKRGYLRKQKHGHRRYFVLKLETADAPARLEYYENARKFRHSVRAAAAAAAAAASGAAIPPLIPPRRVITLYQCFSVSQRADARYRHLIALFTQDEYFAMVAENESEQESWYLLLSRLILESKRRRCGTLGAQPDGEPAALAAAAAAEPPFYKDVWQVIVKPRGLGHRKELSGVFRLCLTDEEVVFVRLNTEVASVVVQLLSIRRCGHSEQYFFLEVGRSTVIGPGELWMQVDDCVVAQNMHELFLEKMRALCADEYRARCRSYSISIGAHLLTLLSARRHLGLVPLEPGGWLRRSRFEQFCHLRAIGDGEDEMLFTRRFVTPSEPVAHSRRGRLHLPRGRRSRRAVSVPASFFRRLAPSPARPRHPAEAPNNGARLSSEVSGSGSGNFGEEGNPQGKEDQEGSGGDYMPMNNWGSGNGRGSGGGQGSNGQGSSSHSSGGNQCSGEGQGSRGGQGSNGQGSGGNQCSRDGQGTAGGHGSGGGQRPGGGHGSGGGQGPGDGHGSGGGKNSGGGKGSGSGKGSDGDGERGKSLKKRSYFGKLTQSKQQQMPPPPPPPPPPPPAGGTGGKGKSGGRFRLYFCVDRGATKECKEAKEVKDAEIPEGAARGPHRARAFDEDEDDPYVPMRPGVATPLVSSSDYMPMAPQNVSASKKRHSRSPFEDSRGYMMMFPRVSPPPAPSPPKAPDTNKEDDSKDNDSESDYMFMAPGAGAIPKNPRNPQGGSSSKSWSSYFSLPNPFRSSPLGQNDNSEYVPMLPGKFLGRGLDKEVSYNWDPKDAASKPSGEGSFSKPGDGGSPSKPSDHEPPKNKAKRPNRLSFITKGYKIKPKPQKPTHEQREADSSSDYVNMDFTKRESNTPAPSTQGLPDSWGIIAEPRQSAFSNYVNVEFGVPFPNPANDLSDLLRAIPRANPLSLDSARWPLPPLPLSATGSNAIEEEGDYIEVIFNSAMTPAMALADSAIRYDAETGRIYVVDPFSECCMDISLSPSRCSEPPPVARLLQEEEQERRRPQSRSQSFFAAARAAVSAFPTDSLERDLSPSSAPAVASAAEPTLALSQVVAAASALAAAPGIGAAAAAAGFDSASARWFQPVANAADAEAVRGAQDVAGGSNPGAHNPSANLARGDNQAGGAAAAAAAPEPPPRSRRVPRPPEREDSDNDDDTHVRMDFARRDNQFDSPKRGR
Put plainly: co-IP; HEK293FT cells transiently co-transfected; lysis in 20 mM HEPES pH 7.5, 150 mM NaCl, 1% Nonidet P-40, 1 mM sodium orthovanadate; Myc-tagged IRS4 form precipitated with anti-Myc resin, partners found by immunoblot; some panels with or without co-expressed FLAG-IRS1, FLAG-PIK3R1 or FER. Background: Immunoblotting shows a protein as a band on a membrane.

For test [2], the target named is T2, Myc-tagged IRS4 1–200 (PH domain only) (human) (UniProt O14654).
T2 sequence: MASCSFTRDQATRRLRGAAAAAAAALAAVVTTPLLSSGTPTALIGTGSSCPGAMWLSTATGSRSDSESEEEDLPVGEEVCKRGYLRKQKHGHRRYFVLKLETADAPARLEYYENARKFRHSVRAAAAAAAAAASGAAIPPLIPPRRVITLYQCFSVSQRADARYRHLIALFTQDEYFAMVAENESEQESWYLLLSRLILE
The description is as above.

Results are given in words; binding and its absence hold for the method and conditions named. Binding seen in cells or lysates may run through a third protein. Some binding calls cover weakened binding; strength is not graded here. Sequences can lack the tags named with a protein.

B1: YFP-tagged IRS4 200–400 (domain or fragment, UniProt O14654 200-400)
chain: ESKRRRCGTLGAQPDGEPAALAAAAAAEPPFYKDVWQVIVKPRGLGHRKELSGVFRLCLTDEEVVFVRLNTEVASVVVQLLSIRRCGHSEQYFFLEVGRSTVIGPGELWMQVDDCVVAQNMHELFLEKMRALCADEYRARCRSYSISIGAHLLTLLSARRHLGLVPLEPGGWLRRSRFEQFCHLRAIGDGEDEMLFTRRFV
For B1, the binding result with GFP-tagged FER is on record as “binds weakly”.

B2: FER QPVY motif deletion mutant (Δ631–634) (enzyme, UniProt P16591)
chain: MGFGSDLKNSHEAVLKLQDWELRLLETVKKFMALRIKSDKEYASTLQNLCNQVDKESTVQMNYVSNVSKSWLLMIQQTEQLSRIMKTHAEDLNSGPLHRLTMMIKDKQQVKKSYIGVHQQIEAEMIKVTKTELEKLKCSYRQLIKEMNSAKEKYKEALAKGKETEKAKERYDKATMKLHMLHNQYVLALKGAQLHQNQYYDITLPLLLDSLQKMQEEMIKALKGIFDEYSQITSLVTEEIVNVHKEIQMSVEQIDPSTEYNNFIDVHRTTAAKEQEIEFDTSLLEENENLQANEIMWNNLTAESLQVMLKTLAEELMQTQQMLLNKEEAVLELEKRIEESSETCEKKSDIVLLLSQKQALEELKQSVQQLRCTEAKFSAQKELLEQKVQENDGKEPPPVVNYEEDARSVTSMERKERLSKFESIRHSIAGIIRSPKSALGSSALSDMISISEKPLAEQDWYHGAIPRIEAQELLKKQGDFLVRESHGKPGEYVLSVYSDGQRRHFIIQYVDNMYRFEGTGFSNIPQLIDHHYTTKQVITKKSGVVLLNPIPKDKKWILSHEDVILGELLGKGNFGEVYKGTLKDKTSVAVKTCKEDLPQELKIKFLQEAKILKQYDHPNIVKLIGVCTQRIIMELVSGGDFLTFLRRKKDELKLKQLVKFSLDAAAGMLYLESKNCIHRDLAARNCLVGENNVLKISDFGMSRQEDGGVYSSSGLKQIPIKWTAPEALNYGRYSSESDVWSFGILLWETFSLGVCPYPGMTNQQAREQVERGYRMSAPQHCPEDISKIMMKCWDYKPENRPKFSELQKELTIIKRKLT
B2: the binding result in test [1] is recorded as “binds”.

B3: FER E676R (single mutant, made from pEGFP-FER) (enzyme, UniProt P16591 1-822)
chain: MGFGSDLKNSHEAVLKLQDWELRLLETVKKFMALRIKSDKEYASTLQNLCNQVDKESTVQMNYVSNVSKSWLLMIQQTEQLSRIMKTHAEDLNSGPLHRLTMMIKDKQQVKKSYIGVHQQIEAEMIKVTKTELEKLKCSYRQLIKEMNSAKEKYKEALAKGKETEKAKERYDKATMKLHMLHNQYVLALKGAQLHQNQYYDITLPLLLDSLQKMQEEMIKALKGIFDEYSQITSLVTEEIVNVHKEIQMSVEQIDPSTEYNNFIDVHRTTAAKEQEIEFDTSLLEENENLQANEIMWNNLTAESLQVMLKTLAEELMQTQQMLLNKEEAVLELEKRIEESSETCEKKSDIVLLLSQKQALEELKQSVQQLRCTEAKFSAQKELLEQKVQENDGKEPPPVVNYEEDARSVTSMERKERLSKFESIRHSIAGIIRSPKSALGSSALSDMISISEKPLAEQDWYHGAIPRIEAQELLKKQGDFLVRESHGKPGEYVLSVYSDGQRRHFIIQYVDNMYRFEGTGFSNIPQLIDHHYTTKQVITKKSGVVLLNPIPKDKKWILSHEDVILGELLGKGNFGEVYKGTLKDKTSVAVKTCKEDLPQELKIKFLQEAKILKQYDHPNIVKLIGVCTQRQPVYIIMELVSGGDFLTFLRRKKDELKLKQLVKFSLDAAAGMLYLRSKNCIHRDLAARNCLVGENNVLKISDFGMSRQEDGGVYSSSGLKQIPIKWTAPEALNYGRYSSESDVWSFGILLWETFSLGVCPYPGMTNQQAREQVERGYRMSAPQHCPEDISKIMMKCWDYKPENRPKFSELQKELTIIKRKLT
Consider B3, for which the binding entry in test [1] and in test [2] was “binds” in each case.

B4: FER E740R (single mutant, made from pEGFP-FER) (enzyme, UniProt P16591 1-822)
chain: MGFGSDLKNSHEAVLKLQDWELRLLETVKKFMALRIKSDKEYASTLQNLCNQVDKESTVQMNYVSNVSKSWLLMIQQTEQLSRIMKTHAEDLNSGPLHRLTMMIKDKQQVKKSYIGVHQQIEAEMIKVTKTELEKLKCSYRQLIKEMNSAKEKYKEALAKGKETEKAKERYDKATMKLHMLHNQYVLALKGAQLHQNQYYDITLPLLLDSLQKMQEEMIKALKGIFDEYSQITSLVTEEIVNVHKEIQMSVEQIDPSTEYNNFIDVHRTTAAKEQEIEFDTSLLEENENLQANEIMWNNLTAESLQVMLKTLAEELMQTQQMLLNKEEAVLELEKRIEESSETCEKKSDIVLLLSQKQALEELKQSVQQLRCTEAKFSAQKELLEQKVQENDGKEPPPVVNYEEDARSVTSMERKERLSKFESIRHSIAGIIRSPKSALGSSALSDMISISEKPLAEQDWYHGAIPRIEAQELLKKQGDFLVRESHGKPGEYVLSVYSDGQRRHFIIQYVDNMYRFEGTGFSNIPQLIDHHYTTKQVITKKSGVVLLNPIPKDKKWILSHEDVILGELLGKGNFGEVYKGTLKDKTSVAVKTCKEDLPQELKIKFLQEAKILKQYDHPNIVKLIGVCTQRQPVYIIMELVSGGDFLTFLRRKKDELKLKQLVKFSLDAAAGMLYLESKNCIHRDLAARNCLVGENNVLKISDFGMSRQEDGGVYSSSGLKQIPIKWTAPEALNYGRYSSRSDVWSFGILLWETFSLGVCPYPGMTNQQAREQVERGYRMSAPQHCPEDISKIMMKCWDYKPENRPKFSELQKELTIIKRKLT
With B4, the binding entry in test [1] and in test [2] was “binds” in each case.

B5: FER D684R (single mutant, made from pEGFP-FER) (enzyme, UniProt P16591 1-822)
chain: MGFGSDLKNSHEAVLKLQDWELRLLETVKKFMALRIKSDKEYASTLQNLCNQVDKESTVQMNYVSNVSKSWLLMIQQTEQLSRIMKTHAEDLNSGPLHRLTMMIKDKQQVKKSYIGVHQQIEAEMIKVTKTELEKLKCSYRQLIKEMNSAKEKYKEALAKGKETEKAKERYDKATMKLHMLHNQYVLALKGAQLHQNQYYDITLPLLLDSLQKMQEEMIKALKGIFDEYSQITSLVTEEIVNVHKEIQMSVEQIDPSTEYNNFIDVHRTTAAKEQEIEFDTSLLEENENLQANEIMWNNLTAESLQVMLKTLAEELMQTQQMLLNKEEAVLELEKRIEESSETCEKKSDIVLLLSQKQALEELKQSVQQLRCTEAKFSAQKELLEQKVQENDGKEPPPVVNYEEDARSVTSMERKERLSKFESIRHSIAGIIRSPKSALGSSALSDMISISEKPLAEQDWYHGAIPRIEAQELLKKQGDFLVRESHGKPGEYVLSVYSDGQRRHFIIQYVDNMYRFEGTGFSNIPQLIDHHYTTKQVITKKSGVVLLNPIPKDKKWILSHEDVILGELLGKGNFGEVYKGTLKDKTSVAVKTCKEDLPQELKIKFLQEAKILKQYDHPNIVKLIGVCTQRQPVYIIMELVSGGDFLTFLRRKKDELKLKQLVKFSLDAAAGMLYLESKNCIHRRLAARNCLVGENNVLKISDFGMSRQEDGGVYSSSGLKQIPIKWTAPEALNYGRYSSESDVWSFGILLWETFSLGVCPYPGMTNQQAREQVERGYRMSAPQHCPEDISKIMMKCWDYKPENRPKFSELQKELTIIKRKLT
Turning to B5, the binding result in test [1] and in test [2] was “binds” each time.

B6: YFP-tagged IRS4 335–400 (domain or fragment, UniProt O14654 335-400)
chain: EYRARCRSYSISIGAHLLTLLSARRHLGLVPLEPGGWLRRSRFEQFCHLRAIGDGEDEMLFTRRFV
For the molecule B6, the binding entry in the test with GFP-tagged FER is on record as “no binding”.

B7: YFP-tagged IRS4 1–334 (domain or fragment, UniProt O14654 1-334)
chain: MASCSFTRDQATRRLRGAAAAAAAALAAVVTTPLLSSGTPTALIGTGSSCPGAMWLSTATGSRSDSESEEEDLPVGEEVCKRGYLRKQKHGHRRYFVLKLETADAPARLEYYENARKFRHSVRAAAAAAAAAASGAAIPPLIPPRRVITLYQCFSVSQRADARYRHLIALFTQDEYFAMVAENESEQESWYLLLSRLILESKRRRCGTLGAQPDGEPAALAAAAAAEPPFYKDVWQVIVKPRGLGHRKELSGVFRLCLTDEEVVFVRLNTEVASVVVQLLSIRRCGHSEQYFFLEVGRSTVIGPGELWMQVDDCVVAQNMHELFLEKMRALCAD
With B7, in the test with GFP-tagged FER, the binding result is reported as “binds”.
